# The GenesisPotency data set
# The whole screen tested about 150,000 compounds, of which about 6,500 (4.3%) were called active. Roughly 12% stayed inconclusive and do not appear here. The call rests on the fitted dose curve; in most records, active means well fitted inhibition curve with a large enough effect (not every such curve was filed as active); inconclusive means small, poorly fitted or top-dose-only effect, or another doubt; inactive means no such curve, though single readings can be large or run the other way. This is one part of the list.
# Target: T1, 15-hydroxyprostaglandin dehydrogenase [NAD(+)], Homo sapiens (UniProt P15428)
# T1 sequence (whole entry): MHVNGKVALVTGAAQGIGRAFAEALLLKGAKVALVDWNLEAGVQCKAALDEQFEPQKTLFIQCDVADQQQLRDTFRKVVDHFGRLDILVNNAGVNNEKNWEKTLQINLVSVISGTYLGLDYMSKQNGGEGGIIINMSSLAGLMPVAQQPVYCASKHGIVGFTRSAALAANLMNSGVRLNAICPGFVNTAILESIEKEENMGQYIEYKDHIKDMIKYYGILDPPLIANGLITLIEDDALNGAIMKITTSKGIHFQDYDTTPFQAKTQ
# Assay: qHTS Assay for Inhibitors of HPGD (15-Hydroxyprostaglandin Dehydrogenase)
row,SMILES,outcome
1,O=C(O)c1cc(-c2ccc(F)cc2F)ccc1O,inactive
